# Library screen at single concentrations

From ChEMBL document CHEMBL3988442, “University of Dundee, Small-Polar-MMV Screening Library” (2021).

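Cell assay of Leishmania donovani living inside macrophages; the read-out is not stated. Tested at 30 µM. The record gives no direction; compounds that gave an IC50 in retests scored well above the rest, so higher reads as stronger inhibition. Size under these conditions: about 69,000 compounds, about 1,000 of them at 50% or above in at least one test.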

The filed quantity is “Percent Effect” (%).
The record does not define 0% and 100%; most values in the screen are far below 50% and negative numbers occur (in some assays of this library far below -100).
This is an unselected part of the compounds tested.
Two or more numbers in one place are separate tests of the same structure; such repeats can differ widely.

With O=C1NCCCc2[nH]c(-c3nc(C4CCCCC4)no3)nc21 the screen gave 9.072%.
With Cc1nc(CN2CCCN(CC(=O)N(C)CCC#N)CC2)no1 the screen gave -19.43%.
With CCC(=O)N1CCCN(c2cncc(-n3nc(C)cc3C)n2)CC1 the screen gave -9.538%.
With COCc1cc(N(C)CCc2c(C)n[nH]c2C)ncn1 the screen gave 19%.
With Cc1ccoc1C(=O)N1CCCC(c2cc(C(F)(F)F)[nH]n2)C1 (stereo not given) the screen gave 16.01%.
With Cc1nc(CN(C)Cc2nc(-c3sccc3C)oc2C)no1 the screen gave -8.526%.
With CCOCC1COCCC12CCN(C(=O)C1=CCCC1)CC2 (stereo not given) the screen gave 8.08%.
With CCc1n[nH]c(C2CN(C(=O)Cn3ccccc3=O)CCO2)n1 (stereo not given) the screen gave 6.215%.
With Cc1cc(C)cc(Nc2nc(C)cc(=O)n2CC(=O)NC(C)C)c1 the screen gave 11.61%.
With O=C(O)C(F)(F)F.[H][C@]12CCN(C(=O)NCc3ccccc3)C[C@@]1([H])OCCN(C)C2 the screen gave 14.01%.
With O=C(COc1ccccc1)N(Cc1ccncc1)C1CC1 the screen gave -6.276%.
With O=C1CCCCN1CCCNCc1cnc(C2CCC2)s1 the screen gave 17.54%.
With Cc1ccc(C)c(SCC(=O)Nc2cccc(C(=O)N(C)C)n2)c1 the screen gave -25.19%.
With Cc1cc(-c2cnc(N3CCNC(=O)C3)nc2-c2sccc2C)on1 the screen gave -16.38%.
With Cc1noc(C)c1CC(=O)N1CCC(c2ccn3nccc3n2)CC1 the screen gave 35.87%.
With CC(C)(C)n1ncc2c1NC(=O)CC2c1cccs1 (stereo not given) the screen gave 9.788%.
With COc1cccc(CCC2CCCN(Cc3ncc[nH]3)C2)c1 (stereo not given) the screen gave 19.19%.
With Cn1ccc(CN2CCCC23CCN(Cc2cccc(F)c2)CC3)n1.O=C(O)C(F)(F)F.O=C(O)C(F)(F)F the screen gave 46.29%.
With Cc1ccc(-n2ccnc2)c(C(=O)NCCOCC2CCCO2)c1 (stereo not given) the screen gave 42.52%.
With CCC(NC(=O)c1ccco1)c1nc(C(F)(F)F)cs1 (stereo not given) the screen gave 13.5%.
With Cc1ncoc1C(=O)N1CC[C@@H](O)[C@@H](O)[C@H](N2CCC(F)(F)CC2)C1 the screen gave -0.1526% & -1.347%.
With CN1CC(Oc2ccc(Cl)cc2)=NC(SCC(=O)c2ccccc2)=N1 the screen gave -13.63%.
With CCOc1ccc(C(=O)N2CCCC2c2c(C)nn(C)c2Cl)cn1 (stereo not given) the screen gave 22.31%.
With Cc1ccc(-c2ncc(C(=O)N3CCC[C@H](N)C3)c(O)n2)cc1 the screen gave 3.558%.
With CCS(=O)(=O)NC(C(=O)NC)c1ccc(F)c(F)c1 (stereo not given) the screen gave 19.06%.
With CN(CC(N)=O)Cc1c(Cl)ccc2cccnc12 the screen gave 8.718%.
With Fc1ccc(-c2cnc(CN3CCOC(Cn4cccn4)C3)o2)cc1 (stereo not given) the screen gave 15.16%.
With CCn1cnnc1CNC(=O)N(C)Cc1ccc(F)c(F)c1 the screen gave 17.87%.
With Cc1cc2c(=O)n3c(nc2s1)CCN(C(=O)c1nn(C)cc1Cl)CC3 the screen gave 19.82%.
With COCC(=O)NC[C@H]1CC[C@H](c2nnc(-c3cccnc3)o2)CC1 the screen gave 12.29%.
With COCC(C)NCc1nc(-c2ccc(C)cc2)c(-c2ccccn2)[nH]1 (stereo not given) the screen gave 71.58%.
With Cc1cccc(CN2C(=O)CCC23CCNCC3)n1.O=C(O)C(F)(F)F.O=C(O)C(F)(F)F the screen gave 6.482%.
With CC(C)c1nc(CN(C)C2CCCN(c3cccnn3)C2)no1 (stereo not given) the screen gave -4.983%.
With CCS(=O)(=O)c1ncc(CN2CCCC2)n1CCc1ccccc1 the screen gave -15.83%.
With CCn1ccc(NC(=O)CN2C(=O)CC(C)(C)c3ccccc32)n1 the screen gave -27.02%.
With CCc1ncc(CN2CCOC(Cc3cccc(F)c3)C2)cn1 (stereo not given) the screen gave -4.186%.
With CC(=O)c1c(C)nn(S(=O)(=O)c2ccc(C)c(C)c2)c1C the screen gave 14.05%.
With Cc1ccoc1C(=O)N1CC(C(=O)NCC2CC2)C2(CCOCC2)C1 (stereo not given) the screen gave 16.19% & 29.87%.
With O=C1CN([C@@H]2CC[C@@H](NS(=O)(=O)c3ccccc3F)[C@H]2O)CCN1 the screen gave -15.33%.
With CCC(CCNC(=O)c1cc(C2CC2)nc2c1cnn2C)n1cccn1 (stereo not given) the screen gave 11.41%.
With CNc1ccnc(N(C)Cc2cc(-c3cccs3)n[nH]2)n1 the screen gave 16.23%.
With c1cc(C2CCN(Cc3nc(C4CC4)no3)CC2)[nH]n1 the screen gave 12.31%.
With CCOC(=O)C1=NOC(Cc2cc(OC)c3c(c2)OCO3)C1 (stereo not given) the screen gave -12.97%.
With CC1CCCN(CCCNC(=O)c2ccc(N(C)S(C)(=O)=O)cc2Cl)C1 (stereo not given) the screen gave 31.38%.
With Cc1nc(NC2CCCC2)cc(C2CCN2c2ncccn2)n1 (stereo not given) the screen gave 8.761%.
With NC(=O)c1cc(C2CC2)nc2ccc(F)cc12 the screen gave 19.37%.
With O=C(O)C(F)(F)F.O=C(O)C(F)(F)F.[H][C@@]12CCN(Cc3cccc(C)n3)C[C@]1(C(=O)N1CCCO1)CCO2 the screen gave 10.48%.
With COCCN1CCN(Cc2cccc(OCC(N)=O)c2)CC1C (stereo not given) the screen gave -37.22%.
With CCOc1ccc(Cl)c(C(=O)N2CCCC(c3cc(C)[nH]n3)C2)n1 (stereo not given) the screen gave 31.57%.

The last 3 entries again:

For O=C(O)C(F)(F)F.O=C(O)C(F)(F)F.[H][C@@]12CCN(Cc3cccc(C)n3)C[C@]1(C(=O)N1CCCO1)CCO2 the result was 10.48%.
For COCCN1CCN(Cc2cccc(OCC(N)=O)c2)CC1C (stereo not given) the result was -37.22%.
For CCOc1ccc(Cl)c(C(=O)N2CCCC(c3cc(C)[nH]n3)C2)n1 (stereo not given) the result was 31.57%.